In PubChem BioAssay AID504444 (National Center for Advancing Translational Sciences (NCATS), 2011):
Screen size: about 360,000 compounds; about 7,500 (2.1%) were called active. The shares of active, inactive and inconclusive entries below differ from those in the screen. Calls come from the whole dose curve; as a rule, active = well fitted inhibition curve with a large enough effect; inconclusive = small, poorly fitted or top-dose-only effect, or effect the other way; inactive = flat fitted curve, though single readings scatter. A potency beside an inconclusive call is a rough fit, not a confirmed value.
% is set by controls: 0 for no effect and ±100 for the full control effect; potency is the fitted concentration of half-maximal effect.

Assay: Nrf2 qHTS screen for inhibitors; note: nearly all actives have a fitted effect of over 60% in size
Settings: A549 ARE-Fluc reporter, luciferase luminescence, 18-24 h; activity change, negative = inhibition: at 46 µM (top of the series)
Outline: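 Nrf2 activity is the BugLite luminescence, read 15 min after reagent at room temperature, following CellTiter-Fluor cytotoxicity readout (30 min, 37C). Compound titrations were applied for 18-24 h to 5000 A549 ARE_Fluc cells/well in 5% FBS OPTI-MEM.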
With NC(=S)n1[nH]c(-c2ccc([N+](=O)[O-])cc2)c(N=Nc2cccc([N+](=O)[O-])c2)c1=O the Potency was active: 16.4 µM.
With O=C(NCc1cccnc1)c1ccccn1 the Potency was inconclusive: 13 µM [activator, partial curve, poor fit].
With CC(=O)c1cccc(NC(=O)CSc2nnc(-c3cccnc3)o2)c1 the Potency was inconclusive: 3.26 µM [activator, partial curve, poor fit].
With O=C1C=C(NC(=O)Nc2ccc(Cl)c(Cl)c2)CCC1 the Potency was inconclusive: 3.66 µM [activator, full curve].
With CCOc1ccc(OCc2cccc(C(=O)Nc3ccc(CN4CCCCC4)cc3)c2)cc1 the Potency was inconclusive: 11.6 µM [activator, partial curve].
In the case of O=C(Nc1cccc(Cl)c1)N(CCN1CCOCC1)Cc1cccc(Cl)c1, the Potency is reported as inconclusive: 29.1 µM [falling, single point].
With COc1cccc(Cn2ncc3c4sc(C)cc4n(C)c3c2=O)c1 the “activity change, negative = inhibition” value was inactive: -19.9%.
With COc1ccc(N(CC(=O)NC2CCCC2)C(=O)Cn2nnc(-c3ccc(F)cc3)n2)cc1 the Potency was inconclusive: 18.4 µM [falling, partial curve, poor fit].
In the case of O=C1CCC(C(=O)OCC(=O)N2N=C3/C(=C\c4ccccc4)CCCC3C2c2ccccc2)N1 (stereo unspecified), the Potency is reported as inconclusive: 20.6 µM [falling, single point].
In the case of CC(=O)Oc1cccc(N2C(=O)c3ccc(C(=O)Nc4cccnc4)cc3C2=O)c1, the Potency is reported as inconclusive: 8.2 µM [activator, partial curve, poor fit].
With COC(=O)c1c(NC(=O)CN2C(=O)NC(CCc3ccccc3)C2=O)sc2c1CCCCC2 (stereo unspecified) the Potency was inconclusive: 32.6 µM [falling, single point].
With COc1ccc(CNC(=O)C2CCCN(C(=O)N3CCOc4ccccc43)C2)cc1 (stereo unspecified) the Potency was inconclusive: 25.9 µM [activator, single point].
In the case of COc1cccc(C(=O)c2cc3cc(Cl)ccc3[nH]2)c1, the Potency is reported as inconclusive: 29.1 µM [activator, single point].
In the case of O=C(Nc1cccc(-c2csc(Nc3ccccc3)n2)c1)c1ccccc1, the Potency is reported as inconclusive: 29.1 µM [falling, single point].
For CCN1CCN(CC(=O)Nc2cccc(C)c2)C(=O)C1=O, the Potency was inconclusive: 29.1 µM [activator, partial curve, poor fit].
With COc1ccc(C(=O)NC(Cn2ccnc2)C(C)(C)C)cc1OC1CCN(C(C)C)CC1 (stereo unspecified) the Potency was inconclusive: 6.51 µM [activator, single point].
In the case of O=C(C1CCN(c2nc(-c3ccccc3)nc3c2CCC3)CC1)N1CCC(O)CC1, the Potency is reported as inconclusive: 2.31 µM [falling, full curve].
In the case of c1csc(-c2noc(CN3CCOCC3)n2)c1, the Potency is reported as inconclusive: 16.4 µM [activator, partial curve].
For COc1cccc(N(CC(=O)N2CCOCC2)S(C)(=O)=O)c1, the Potency was inconclusive: 3.66 µM [activator, partial curve, poor fit].
In the case of CCOc1ccc(N(C)c2ccc(/C=C3/SC(=S)NC3=O)cc2)cc1, the Potency is reported as inconclusive: 3.26 µM [falling, partial curve, poor fit].
With O=c1cnc2cc([N+](=O)[O-])ccc2[nH]1 the Potency was inconclusive: 5.8 µM [falling, partial curve, poor fit].
In the case of CCOC(=O)c1sc(NC(=O)CCCCCN2C(=O)c3cccc4cccc(c34)C2=O)nc1C, the Potency is reported as inconclusive: 2.31 µM [falling, full curve, poor fit].
With CC(C)(C)c1ccc(C(=O)N2CCC(c3nc(-c4ccc(S(=O)(=O)N5CCCC5)cc4)no3)CC2)cc1 the Potency was inconclusive: 14.6 µM [falling, partial curve].
In the case of CCN(CC)CCNC(=O)c1ccc(CSc2nc3ccncc3n2Cc2cccc(F)c2)cc1, the Potency is reported as inconclusive: 14.6 µM [activator, partial curve, poor fit].
In the case of O=[N+]([O-])c1cccnc1N1CCN(Cc2ccc3c(c2)OCO3)CC1, the “activity change, negative = inhibition” value is reported as inactive: 2.7%.
For S=C(c1ccc(N2CCCC2)c(Br)c1)N1CCCCC1, the Potency was inconclusive: 0.58 µM [falling, full curve, poor fit].
For CCOc1ccc(-c2cc3c(=O)n(Cc4nc(-c5ccc(OC(C)C)cc5)oc4C)ccn3n2)cc1Cl, the “activity change, negative = inhibition” value was inactive: 15.3%.
With Cc1ccc2nsnc2c1S(=O)(=O)N1CCN(CCc2ccccc2)CC1 the Potency was inconclusive: 18.4 µM [falling, single point].
In the case of COc1ccc(Cl)cc1N1Cc2ccccc2C1, the Potency is reported as inconclusive: 0.092 µM [activator, full curve, poor fit].
For CCCCN(C(=O)c1c(C)[nH]c(C(=O)OCC)c1C)c1ccccc1, the Potency was inconclusive: 8.2 µM [falling, partial curve, poor fit].
For CCN(CC)S(=O)(=O)c1ccc(N2CCCC2)c(NC(=O)c2ccc([N+](=O)[O-])o2)c1, the “activity change, negative = inhibition” value was inactive: -12.4%.
In the case of CCNC(=O)OCc1cn(-c2ccccc2)nn1, the Potency is reported as inconclusive: 29.1 µM [activator, single point].
For COc1ccc(C(=O)N2N=C(c3ccc(NS(C)(=O)=O)cc3)CC2c2cccs2)cc1 (stereo unspecified), the Potency was inconclusive: 23.1 µM [falling, partial curve].
With CCSc1ccccc1C(=O)Nc1nncs1 the Potency was inconclusive: 16.4 µM [activator, partial curve, poor fit].
With O=S(=O)(NCc1cccnc1)c1cccn1-c1ncc(C(F)(F)F)cc1Cl the Potency was active: 16.4 µM.
For Cc1ccccc1OCC(=O)NNC(=O)C1CCN(c2ncnc3sc(C)c(C)c23)CC1, the Potency was inconclusive: 29.1 µM [falling, single point].
For COC(=O)c1scc(S(=O)(=O)c2ccccc2)c1N, the Potency was inconclusive: 25.9 µM [falling, single point].
In the case of Cc1ccc(-c2nc(NCC3CCCO3)sc2C)cc1 (stereo unspecified), the Potency is reported as inconclusive: 29.1 µM [activator, single point].
For O=C(Nc1ccc(Cl)cc1)Nc1nc(-c2ccccc2O)cs1, the Potency was inconclusive: 29.1 µM [falling, single point].
In the case of O=C(CN1C(=O)c2cccc3cccc1c23)N1CCc2ccccc2C1, the Potency is reported as inconclusive: 0.206 µM [falling, full curve, poor fit].
For O=C(c1ccc2c(=O)n3c(nc2c1)CCC3)N1CCN(S(=O)(=O)c2ccccc2Br)CC1, the Potency was inconclusive: 8.2 µM [falling, partial curve, poor fit].
In the case of Cc1cccc2c1-c1sc(C(=O)Nc3cccc([N+](=O)[O-])c3C)cc1CO2, the Potency is reported as inconclusive: 3.26 µM [falling, full curve].
With COCCNC(=O)CN(c1cc(C(F)(F)F)ccc1Cl)S(C)(=O)=O the Potency was inconclusive: 29.1 µM [activator, single point].
With CCN(CC)c1nc(C(N)=O)cc(-c2ccccc2)n1 the Potency was inconclusive: 29.1 µM [falling, partial curve, poor fit].
For COc1ccccc1N1CCN(C(=O)c2ccc(C(C)(C)C)cc2)CC1, the “activity change, negative = inhibition” value was inactive: 15.9%.
In the case of COc1ccccc1CNC(=O)CCNS(=O)(=O)c1ccc2c(c1)CCCC(=O)N2, the Potency is reported as inconclusive: 16.4 µM [activator, partial curve, poor fit].
With CCOC(=O)c1c(C)[nH]c(C)c1S(=O)(=O)NCC(=O)NCc1ccc(C)cc1 the Potency was inconclusive: 25.9 µM [activator, partial curve, poor fit].
In the case of CCC(=O)Nc1nc(C)c(-c2csc(Nc3cccc(C(=O)O)c3)n2)s1, the “activity change, negative = inhibition” value is reported as inactive: 0.26%.
For CCOC(=O)N1CCN(Cc2nc(N)nc(Nc3ccc(C)cc3C)n2)CC1, the Potency was inconclusive: 6.51 µM [activator, single point].
With O=C1CC(c2ccco2)=Nc2ccccc2N1 the Potency was inconclusive: 0.0326 µM [falling, full curve, poor fit].
In the case of O=C(NCCc1ccccc1)c1cccc(NC(=O)c2ccccc2)c1, the Potency is reported as inconclusive: 18.4 µM [activator, partial curve, poor fit].
With O=C(NCc1cccn1Cc1ccccc1)Nc1ccc(Br)cc1F the Potency was inconclusive: 20.6 µM [falling, partial curve, poor fit].
For CCOC(=O)N1CCN(C(=O)c2cc3c(-c4ccc(Cl)cc4)nn(C)c3s2)CC1, the Potency was inconclusive: 18.4 µM [falling, single point].
In the case of COc1ccc(/C=N/N=C(\N)c2nonc2N)cc1, the Potency is reported as inconclusive: 2.59 µM [activator, partial curve, poor fit].
With Cc1cc(NC(=O)CCC(=O)N(Cc2ccco2)C2(C(=O)NC3CCCCC3)CCCCC2)no1 the Potency was inconclusive: 16.4 µM [activator, single point].
With CC(C)(C)C(=O)N1CCN(S(=O)(=O)c2ccc3c(c2)OCCCO3)CC1 the Potency was inconclusive: 10.3 µM [falling, partial curve].
For Cc1ccc(NC(=O)c2ccccc2NS(=O)(=O)c2ccc(Cl)s2)cc1S(=O)(=O)N1CCOCC1, the Potency was active: 23.1 µM.
In the case of Fc1ccc(-n2c(Cc3ccccc3)nnc2SCc2nc(-c3ccc(Cl)cc3)no2)cc1, the Potency is reported as inconclusive: 13 µM [falling, partial curve, poor fit].
In the case of CC(OC(=O)c1c2c(nc3ccccc13)/C(=C\c1ccc3c(c1)OCO3)CCC2)C(=O)Nc1ccc(S(N)(=O)=O)cc1 (stereo unspecified), the Potency is reported as inconclusive: 23.1 µM [falling, single point].
In the case of COc1ccc(/C=N/NC(=O)c2ccc(N)cc2)cc1Cn1cc([N+](=O)[O-])cn1, the “activity change, negative = inhibition” value is reported as inactive: 3.01%.
For CCCSc1nnc(CSc2nc(C)cc(C)n2)n1C, the Potency was inconclusive: 0.0046 µM [falling, full curve, poor fit].
